The values below are quoted from earlier work in patent US20110105387A1 (priority 2009, published 2011).

As to `CO[C@H]1C[C@@H]2CC[C@@H](C)[C@@](O)(O2)C(=O)C(=O)N2CCCC[C@H]2C(=O)O[C@H]([C@H](C)C[C@@H]2CC[C@@H](O)[C@H](OC)C2)CC(=O)[C@H](C)/C=C(\C)[C@@H](O)[C@@H](OC)C(=O)[C@H](C)C[C@H](C)/C=C/C=C/C=C/1C` [rapamycin], the solubility in water result is given as “insoluble”.
